From paper PMC10670506
These are yes or no findings as the source states them, for the method shown. In cells and extracts the contact can be indirect. Here binding means that the protein was enriched with, or labelled near, the bait; the list need not be complete. Sequences can lack the tags named with a protein. Blank lines part the entries; values can stand above or below the binder they belong to.

Target: T1, N-terminal Strep/FLAG-tagged human BBS1 wild type (human) (UniProt Q8NFJ9)
T1 sequence: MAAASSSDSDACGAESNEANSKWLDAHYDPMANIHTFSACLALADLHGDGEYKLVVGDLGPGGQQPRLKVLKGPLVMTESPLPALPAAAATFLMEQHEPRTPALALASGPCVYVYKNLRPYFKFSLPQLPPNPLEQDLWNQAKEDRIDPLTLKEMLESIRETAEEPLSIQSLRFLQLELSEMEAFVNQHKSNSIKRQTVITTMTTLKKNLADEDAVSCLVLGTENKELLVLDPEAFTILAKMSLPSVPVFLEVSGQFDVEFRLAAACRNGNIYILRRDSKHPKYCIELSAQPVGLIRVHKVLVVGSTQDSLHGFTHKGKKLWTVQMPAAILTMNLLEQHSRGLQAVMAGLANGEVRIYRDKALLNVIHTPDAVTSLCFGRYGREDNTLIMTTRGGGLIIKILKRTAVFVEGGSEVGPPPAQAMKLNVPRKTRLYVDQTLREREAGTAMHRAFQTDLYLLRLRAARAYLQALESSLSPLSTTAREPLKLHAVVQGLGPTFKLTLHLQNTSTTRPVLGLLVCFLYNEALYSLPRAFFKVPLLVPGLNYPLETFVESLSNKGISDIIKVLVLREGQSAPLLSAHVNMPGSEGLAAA
Assay: affinity purification with mass spectrometry; Strep/FLAG-tagged BBS1 bait transfected into HEK293T; lysis in 1x TBS, 0.5% Nonidet P40; Strep-based purification on beads for 90 min, Strep elution; label-free quantification against C-terminal Strep/FLAG-tagged RAF1 control; 9 biological replicates

B2: BBS2 (protein, UniProt Q9BXC9 1-721)
chain: MLLPVFTLKLRHKISPRMVAIGRYDGTHPCLAAATQTGKVFIHNPHTRNQHVSASRVFQSPLESDVSLLSINQAVSCLTAGVLNPELGYDALLVGTQTNLLAYDVYNNSDLFYREVADGANAIVLGTLGDISSPLAIIGGNCALQGFNHEGSDLFWTVTGDNVNSLALCDFDGDGKKELLVGSEDFDIRVFKEDEIVAEMTETEIVTSLCPMYGSRFGYALSNGTVGVYDKTSRYWRIKSKNHAMSIHAFDLNSDGVNELITGWSNGKVDARSDRTGEVIFKDNFSSAIAGVVEGDYRMDGHIQLICCSVDGEIRGYLPGTAEMRGNLMDTSAEQDLIRELSQKKQNLLLELRNYEENAKAELASPLNEADGHRGIIPANTRLHTTLSVSLGNETQTAHTELRISTSNDTIIRAVLIFAEGIFTGESHVVHPSIHNLSSSICIPIVPPKDVPVDLHLKAFVGYRSSTQFHVFESTRQLPRFSMYALTSLDPASEPISYVNFTIAERAQRVVVWLGQNFLLPEDTHIQNAPFQVCFTSLRNGGHLHIKIKLSGEITINTDDIDLAGDIIQSMASFFAIEDLQVEADFPVYFEELRKVLVKVDEYHSVHQKLSADMADHSNLIRSLLVGAEDARLMRDMKTMKSRYMELYDLNRDLLNGYKIRCNNHTELLGNLKAVNQAIQRAGRLRVGKPKNQVITACRDAIRSNNINTLFKIMRVGTASS
- binding: binds

B3: BBS5 (protein, UniProt Q8N3I7 1-341)
chain: MSVLDALWEDRDVRFDLSAQQMKTRPGEVLIDCLDSIEDTKGNNGDRGRLLVTNLRILWHSLALSRVNVSVGYNCILNITTRTANSKLRGQTEALYILTKCNSTRFEFIFTNLVPGSPRLFTSVMAVHRAYETSKMYRDFKLRSALIQNKQLRLLPQEHVYDKINGVWNLSSDQGNLGTFFITNVRIVWHANMNDSFNVSIPYLQIRSIKIRDSKFGLALVIESSQQSGGYVLGFKIDPVEKLQESVKEINSLHKVYSASPIFGVDYEMEEKPQPLEALTVEQIQDDVEIDSDGHTDAFVAYFADGNKQQDREPVFSEELGLAIEKLKDGFTLQGLWEVMS
- binding: binds

B4: BBS4 (protein, UniProt Q96RK4 1-519)
chain: MAEERVATRTQFPVSTESQKPRQKKAPEFPILEKQNWLIHLHYIRKDYEACKAVIKEQLQETQGLCEYAIYVQALIFRLEGNIQESLELFQTCAVLSPQSADNLKQVARSLFLLGKHKAAIEVYNEAAKLNQKDWEISHNLGVCYIYLKQFNKAQDQLHNALNLNRHDLTYIMLGKIHLLEGDLDKAIEVYKKAVEFSPENTELLTTLGLLYLQLGIYQKAFEHLGNALTYDPTNYKAILAAGSMMQTHGDFDVALTKYRVVACAVPESPPLWNNIGMCFFGKKKYVAAISCLKRANYLAPFDWKILYNLGLVHLTMQQYASAFHFLSAAINFQPKMGELYMLLAVALTNLEDIENAKRAYAEAVHLDKCNPLVNLNYAVLLYNQGEKKNALAQYQEMEKKVSLLKDNSSLEFDSEMVEMAQKLGAALQVGEALVWTKPVKDPKSKHQTTSTSKPASFQQPLGSNQALGQAMSSAAAYRTLPSGAGGTSQFTKPPSLPLEPEPAVESSPTETSEQIREK
- binding: binds

Now from value to binder:

- binding: binds
B1: TTC8 (protein, UniProt Q8TAM2 1-541)
chain: MSSEMEPLLLAWSYFRRRKFQLCADLCTQMLEKSPYDQEPDPELPVHQAAWILKARALTEMVYIDEIDVDQEGIAEMMLDENAIAQVPRPGTSLKLPGTNQTGGPSQAVRPITQAGRPITGFLRPSTQSGRPGTMEQAIRTPRTAYTARPITSSSGRFVRLGTASMLTSPDGPFINLSRLNLTKYSQKPKLAKALFEYIFHHENDVKTIHLEDVVLHLGIYPFLLRNKNHIEKNALDLAALSTEHSQYKDWWWKVQIGKCYYRLGMYREAEKQFKSALKQQEMVDTFLYLAKVYVSLDQPVTALNLFKQGLDKFPGEVTLLCGIARIYEEMNNMSSAAEYYKEVLKQDNTHVEAIACIGSNHFYSDQPEIALRFYRRLLQMGIYNGQLFNNLGLCCFYAQQYDMTLTSFERALSLAENEEEAADVWYNLGHVAVGIGDTNLAHQCFRLALVNNNNHAEAYNNLAVLEMRKGHVEQARALLQTASSLAPHMYEPHFNFATISDKIGDLQRSYVAAQKSEAAFPDHVDTQHLIKQLRQHFAML

- binding: binds
B5: BBS9 (protein, UniProt Q3SYG4 1-887)
chain: MSLFKARDWWSTILGDKEEFDQGCLCLANVDNSGNGQDKIIVGSFMGYLRIFSPHPAKTGDGAQAEDLLLEVDLRDPVLQVEVGKFVSGTEMLHLAVLHSRKLCVYSVSGTLGNVEHGNQCQMKLMYEHNLQRTACNMTYGSFGGVKGRDLICIQSMDGMLMVFEQESYAFGRFLPGFLLPGPLAYSSRTDSFLTVSSCQQVESYKYQVLAFATDADKRQETEQQKLGSGKRLVVDWTLNIGEQALDICIVSFNQSASSVFVLGERNFFCLKDNGQIRFMKKLDWSPSCFLPYCSVSEGTINTLIGNHNNMLHIYQDVTLKWATQLPHIPVAVRVGCLHDLKGVIVTLSDDGHLQCSYLGTDPSLFQAPNVQSRELNYDELDVEMKELQKIIKDVNKSQGVWPMTEREDDLNVSVVVSPNFDSVSQATDVEVGTDLVPSVTVKVTLQNRVILQKAKLSVYVQPPLELTCDQFTFEFMTPDLTRTVSFSVYLKRSYTPSELEGNAVVSYSRPTDRNPDGIPRVIQCKFRLPLKLICLPGQPSKTASHKITIDTNKSPVSLLSLFPGFASQSDDDQVNVMGFHFLGGARITVLASKTSQRYRIQSEQFEDLWLITNELILRLQEYFEKQGVKDFACSFSGSIPLQEYFELIDHHFELRINGEKLEELLSERAVQFRAIQRRLLARFKDKTPAPLQHLDTLLDGTYKQVIALADAVEENQGNLFQSFTRLKSATHLVILLIALWQKLSADQVAILEAAFLPLQEDTQELGWEETVDAAISHLLKTCLSKSSKEQALNLNSQLNIPKDTSQLKKHITLLCDRLSKGGRLCLSTDAAAPQTMVMPGGCTTIPESDLEERSVEQDSTELFTNHRHLTAETPRPEVSPLQGVSE
